The target in this experiment is T1, ^NYGIRK3 (^NYFP fused to the N-terminal domain of GIRK3) (UniProt P48543).
T1 sequence: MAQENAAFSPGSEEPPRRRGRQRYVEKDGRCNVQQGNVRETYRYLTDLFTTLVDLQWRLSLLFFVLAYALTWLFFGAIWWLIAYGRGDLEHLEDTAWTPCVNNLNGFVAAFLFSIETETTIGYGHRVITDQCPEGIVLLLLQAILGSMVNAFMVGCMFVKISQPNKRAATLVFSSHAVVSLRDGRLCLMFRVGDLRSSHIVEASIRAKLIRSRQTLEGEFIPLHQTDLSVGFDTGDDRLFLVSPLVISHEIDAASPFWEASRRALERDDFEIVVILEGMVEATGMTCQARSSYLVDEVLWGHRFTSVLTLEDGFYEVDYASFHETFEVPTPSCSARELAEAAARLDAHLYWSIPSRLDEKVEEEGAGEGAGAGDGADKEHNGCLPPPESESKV
Put plainly: split reporter; BiFC with split YFP in transiently transfected HEK293 cells, 37°C for 24 h and 30°C for another 24 h, fixed, confocal microscopy.

Results are given in words; binding and its absence hold for the method and conditions named. Binding seen in cells or lysates may run through a third protein. Binding can be weak; no strength is given. Sequences can lack the tags named with a protein.

For “^CYGIRK2c (^CYFP fused to the N-terminal domain of GIRK2c) (from UniProt P48542-1)”, the binding entry is listed as “binds”.

For the origin of these results see PMC3607560.
